Results: the supplement of paper PMC4635364
Structures can show the parent of a compound that is named as a salt. Some of the results follow. Repeats in this data set agree poorly, so a single value says little.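 Human fetal ventral-midbrain neural progenitor line ReNCell VM, differentiated without mitogens. Images stained for doublecortin (early neurons) or tyrosine hydroxylase (dopaminergic neurons) were scored by blinded raters against untreated wells (0 = no change). Repeats and both raters were averaged, and compounds averaging 2 or higher were picked as hits for retesting.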

Key:
[1] = system: ReNCell VM; assay: neuronal differentiation score (DCX+ cell fraction vs untreated, manual image score) (score (-3 to 3)); higher = more neuronal differentiation; details: 2 uM, 2 weeks
[2] = system: ReNCell VM; assay: dopaminergic neuron differentiation score (TH+ cell fraction vs untreated, manual image score) (score (0 to 3)); higher = more TH+ dopaminergic neuron differentiation; details: 2 uM, 4 weeks, BDNF 10 ng/ml + GDNF 10 ng/ml

With O=C(Nc1ccc(C(F)(F)F)cn1)N1CCN(c2ncccc2C(F)(F)F)CC1 as the compound, how does the neuronal differentiation score ([1]; library: Tocriscreen) read?
Its neuronal differentiation score is inactive: 0.

And the “dopaminergic neuron differentiation score” value ([2]; library: Tocriscreen)?
Its value is inactive: 0.

What does the source list for Nc1ncnc2c1ncn2[C@@H]1O[C@H](CO)C[C@H]1O [Cordycepin]?
neuronal differentiation score ([1]; library: Tocriscreen): inactive: 0; dopaminergic neuron differentiation score ([2]; library: Tocriscreen): inactive: 0

For Clc1ccc(C(Cn2ccnc2)OCc2ccsc2Cl)c(Cl)c1 (stereo unspecified) [Tioconazole], which neuronal differentiation score ([1]; library: Prestwick) is on record?
Its neuronal differentiation score is inactive: 0.

What about the “dopaminergic neuron differentiation score” value ([2]; library: Prestwick) of the same compound?
Its value is inactive: 0.

Which results are given for CC1=C(/C=C/C(C)=C/C=C/C(C)=C/C=C/C=C(C)/C=C/C=C(C)/C=C/C2=C(C)C(=O)[C@@H](O)CC2(C)C)C(C)(C)C[C@H](O)C1=O?
neuronal differentiation score ([1]; library: Spectrum): inactive: 0; dopaminergic neuron differentiation score ([2]; library: Spectrum): inactive: 0

For NS(=O)(=O)c1nn2cc(-c3ccccc3)nc2s1, which neuronal differentiation score ([1]; library: Tocriscreen) is on record?
Its neuronal differentiation score is inactive: 0.

What about the “dopaminergic neuron differentiation score” value ([2]; library: Tocriscreen) of the same compound?
Its value is inactive: 0.

With Nc1ccc(S(=O)(=O)Nc2cnc3ccccc3n2)cc1 [Sulfaquinoxaline sodium salt] as the compound, how does the neuronal differentiation score ([1]; library: Prestwick) read?
Its neuronal differentiation score is inactive: 0.

And the “dopaminergic neuron differentiation score” value ([2]; library: Prestwick)?
Its value is inactive: 0.

What does the source list for CC(=O)Oc1cc(OC(C)=O)c2c(c1)O[C@H](c1ccc(OC(C)=O)c(OC(C)=O)c1)[C@H](OC(C)=O)C2?
neuronal differentiation score ([1]; library: Spectrum): inactive: 0; dopaminergic neuron differentiation score ([2]; library: Spectrum): inactive: 0

Which neuronal differentiation score ([1]; library: Tocriscreen) does the source give for Nc1ccc(-c2cccc3c(=O)cc(N4CCOCC4)oc23)cc1 here?
Its neuronal differentiation score is inactive: 0.

And the “dopaminergic neuron differentiation score” value ([2]; library: Tocriscreen)?
The value was inactive: 0.

How did the neuronal differentiation score ([1]; library: Spectrum) turn out when CCN(CC)CCOC(=O)C(c1ccccc1)c1ccccc1 was run?
Its neuronal differentiation score is inactive: 0.

And the “dopaminergic neuron differentiation score” value ([2]; library: Spectrum)?
The value was inactive: 0.

How did the neuronal differentiation score ([1]; library: Spectrum) turn out when COC(=O)c1c(C)cc(OC(=O)c2c(C)cc(O)c(C=O)c2O)c(C)c1O was run?
The neuronal differentiation score was inactive: 0.

What about the “dopaminergic neuron differentiation score” value ([2]; library: Spectrum) of the same compound?
The value was inactive: 0.

With CCCCC/C=C/CCC(=O)N[C@H]1[C@H](Oc2c3cc4cc2Oc2ccc(cc2Cl)[C@@H](O[C@@H]2O[C@H](CO)[C@@H](O)[C@H](O)[C@H]2NC(C)=O)[C@@H]2NC(=O)[C@H](NC(=O)[C@@H]4NC(=O)[C@H]4NC(=O)C(Cc5ccc(c(Cl)c5)O3)NC(=O)[C@H](N)c3ccc(O)c(c3)Oc3cc(O)cc4c3)c3ccc(O)c(c3)-c3c(OC4O[C@H](CO)[C@@H](O)[C@H](O)[C@@H]4O)cc(O)cc3[C@@H](C(=O)O)NC2=O)O[C@H](CO)[C@@H](O)[C@@H]1O (stereo partly specified) [TEICOPLANIN [A(2-1) shown]] as the compound, how does the neuronal differentiation score ([1]; library: Spectrum) read?
The neuronal differentiation score was inactive: 0.

And the “dopaminergic neuron differentiation score” value ([2]; library: Spectrum)?
Its value is inactive: 0.

With CC(O)(P(=O)(O)O)P(=O)(O)O [Etidronic acid, disodium salt] as the compound, how does the neuronal differentiation score ([1]; library: Prestwick) read?
Its neuronal differentiation score is inactive: 0.

What about the “dopaminergic neuron differentiation score” value ([2]; library: Prestwick) of the same compound?
The value was inactive: 0.

With OCCN1CCN(CC/C=C2/c3ccccc3Sc3ccc(C(F)(F)F)cc32)CC1 [cis-(Z)-Flupenthixol dihydrochloride] as the compound, how does the neuronal differentiation score ([1]; library: LOPAC) read?
Its neuronal differentiation score is inactive: 0.

What about the “dopaminergic neuron differentiation score” value ([2]; library: LOPAC) of the same compound?
The value was inactive: 0.

How did the neuronal differentiation score ([1]; library: Spectrum) turn out when Clc1ccc(C(Cn2ccnc2)OCc2ccsc2Cl)c(Cl)c1 (stereo unspecified) was run?
Its neuronal differentiation score is inactive: 0.

What about the “dopaminergic neuron differentiation score” value ([2]; library: Spectrum) of the same compound?
Its value is inactive: 0.

Which results are given for C=C(C)[C@@H]1CC=C(C(=O)O)CC1?
neuronal differentiation score ([1]; library: Spectrum): inactive: 0; dopaminergic neuron differentiation score ([2]; library: Spectrum): inactive: 0

CN[C@@H]1[C@H](O)[C@H](NC)[C@H]2O[C@@]3(O)C(=O)C[C@@H](C)O[C@H]3O[C@@H]2[C@H]1O was tested. Which neuronal differentiation score ([1]; library: Spectrum) did it give?
The neuronal differentiation score was inactive: 0.

And the “dopaminergic neuron differentiation score” value ([2]; library: Spectrum)?
The value was inactive: 0.

Which neuronal differentiation score ([1]; library: Spectrum) does the source give for CC1(C)C[C@@H]2/C(CO)=C\C=C/[C@@](C)(O)CC[C@]21O here?
Its neuronal differentiation score is inactive: 0.

What about the “dopaminergic neuron differentiation score” value ([2]; library: Spectrum) of the same compound?
Its value is inactive: 0.

What does the source list for CC[N+](CC)(CC)CC(=O)Nc1c(C)cccc1C [Lidocaine N-ethyl bromide quaternary salt]?
neuronal differentiation score ([1]; library: LOPAC): inactive: 0; dopaminergic neuron differentiation score ([2]; library: LOPAC): inactive: 0

With C[C@]1(OC(=O)/C=C/c2ccccc2)C[C@@H](O)[C@]2(O)C=CO[C@@H](O[C@@H]3O[C@H](CO)[C@@H](O)[C@H](O)[C@H]3O)[C@@H]21 [Harpagoside] as the compound, how does the neuronal differentiation score ([1]; library: Phytochemical) read?
The neuronal differentiation score was inactive: 0.

And the “dopaminergic neuron differentiation score” value ([2]; library: Phytochemical)?
Its value is inactive: 0.

For C[C@]12CC[C@@H]3c4ccc(O)cc4CC[C@H]3[C@@H]1CC[C@@H]2OC(=O)CCC1CCCC1, which neuronal differentiation score ([1]; library: Spectrum) is on record?
The neuronal differentiation score was inactive: 0.

And the “dopaminergic neuron differentiation score” value ([2]; library: Spectrum)?
The value was inactive: 0.

Which neuronal differentiation score ([1]; library: LOPAC) does the source give for OC[C@H]1NC[C@@H](O)[C@@H]1O [1,4-Dideoxy-1,4-imino-D-arabinitol] here?
Its neuronal differentiation score is inactive: 0.

What about the “dopaminergic neuron differentiation score” value ([2]; library: LOPAC) of the same compound?
Its value is inactive: 0.

CC(=O)OCC(=O)[C@@]1(O)CC[C@H]2[C@@H]3CCC4=CC(=O)C=C[C@]4(C)[C@H]3[C@@H](O)C[C@@]21C was tested. Which neuronal differentiation score ([1]; library: Spectrum) did it give?
The neuronal differentiation score was inactive: 0.

And the “dopaminergic neuron differentiation score” value ([2]; library: Spectrum)?
The value was inactive: 0.

How did the neuronal differentiation score ([1]; library: Prestwick) turn out when O=C(COc1ccc(Cl)cc1)N1CCN(Cc2ccc3c(c2)OCO3)CC1 [Fipexide hydrochloride] was run?
The neuronal differentiation score was inactive: 0.

And the “dopaminergic neuron differentiation score” value ([2]; library: Prestwick)?
The value was inactive: 0.

For CCOC(=O)n1ccn(C)c1=S [Carbimazole], which neuronal differentiation score ([1]; library: Prestwick) is on record?
Its neuronal differentiation score is inactive: 0.

And the “dopaminergic neuron differentiation score” value ([2]; library: Prestwick)?
The value was inactive: 0.

Which results are given for CCOC(N)=O?
neuronal differentiation score ([1]; library: Spectrum): inactive: 0; dopaminergic neuron differentiation score ([2]; library: Spectrum): inactive: 0

Cc1cc2nc3c(=O)[nH]c(=O)nc-3n(CC(O)C(O)C(O)CO)c2cc1N(C)C (stereo unspecified) [roseoflavin] was tested. Which neuronal differentiation score ([1]; library: Natural) did it give?
The neuronal differentiation score was inactive: 0.

And the “dopaminergic neuron differentiation score” value ([2]; library: Natural)?
Its value is inactive: 0.

What does the source list for O=C(O)c1cccnc1 [Nicotinic acid]?
neuronal differentiation score ([1]; library: Phytochemical): inactive: 0; dopaminergic neuron differentiation score ([2]; library: Phytochemical): inactive: 0

COc1ccc2c(c1OC)C(=O)O[C@@H]2[C@H]1c2c(cc3c(c2OC)OCO3)CCN1C [Noscapine] was tested. Which neuronal differentiation score ([1]; library: Phytochemical) did it give?
The neuronal differentiation score was inactive: 0.

What about the “dopaminergic neuron differentiation score” value ([2]; library: Phytochemical) of the same compound?
Its value is inactive: 0.

NC(=O)c1ncn([C@@H]2O[C@H](CO)[C@@H](O)[C@H]2O)n1 was tested. Which neuronal differentiation score ([1]; library: Spectrum) did it give?
Its neuronal differentiation score is inactive: 1.

What about the “dopaminergic neuron differentiation score” value ([2]; library: Spectrum) of the same compound?
The value was inactive: 0.

C=C(C)[C@@H]1CC[C@]2(C(=O)O)CC[C@]3(C)[C@H](CC[C@@H]4[C@@]5(C)CC[C@H](O)C(C)(C)[C@@H]5CC[C@]43C)[C@@H]12 was tested. Which neuronal differentiation score ([1]; library: Spectrum) did it give?
Its neuronal differentiation score is inactive: 1.

And the “dopaminergic neuron differentiation score” value ([2]; library: Spectrum)?
The value was inactive: 0.

Which results are given for COc1cc(OC)c2c(c1)OC(c1ccccc1)CC2=O (stereo unspecified)?
neuronal differentiation score ([1]; library: Spectrum): inactive: 0; dopaminergic neuron differentiation score ([2]; library: Spectrum): inactive: 0

For CN[C@@H]1[C@@H](O[C@H]2O[C@H](CO)[C@@H](N)[C@H](O)[C@H]2O)OC2C[C@@H](N)[C@@H](O[C@H]3[C@H](O)[C@@H](O)[C@H](N)C[C@@H]3N)OC2[C@@H]1O (stereo partly specified), which neuronal differentiation score ([1]; library: Spectrum) is on record?
The neuronal differentiation score was inactive: 0.

What about the “dopaminergic neuron differentiation score” value ([2]; library: Spectrum) of the same compound?
The value was inactive: 0.

What does the source list for CN1CCCC(CC2c3ccccc3Sc3ccccc32)C1 (stereo unspecified) [Metixene hydrochloride]?
neuronal differentiation score ([1]; library: Prestwick): inactive: 0; dopaminergic neuron differentiation score ([2]; library: Prestwick): inactive: 0
